Results reported in publication doi:10.1101/2022.03.29.486232.
These are yes or no findings as the source states them, for the method shown. Where a sequence is shown, tags or fusion partners need not be part of it.

Target: purified His-tagged recombinant LGI1 (UniProt Q8K4Y5)
Assay: SPR

B1: purified His-tagged recombinant LGI1 (protein, UniProt Q8K4Y5 35-557)
chain: KKPAKPKCPAVCTCSKDNALCENARSIPRTVPPDVISLSFVRSGFTEISEGSFLFTPSLQLLLFTSNSFDVISDDAFIGLPHLEYLFIENNNIKSISRHTFRGLKSLIHLSLANNNLQTLPKDIFKGLDSLTNVDLRGNSFNCDCKLKWLVEWLGHTNATVEDIYCEGPPEYKKRKINSLSPKDFDCIITEFAKSQDLPYQSLSIDTFSYLNDEYVVIAQPFTGKCIFLEWDHVEKTFRNYDNITGTSTVVCKPIVIDTQLYVIVAQLFGGSHIYKRDGFANKFIKIQDIEVLKIRKPNDIETFKIEDNWYFVVADSSKAGFTTIYKWNGNGFYSHQSLHAWYRDTDVEYLEIARPPLTLRTPHLILSSSSQRPVIYQWSKATQLFINQTDIPNMEDVYAVKHFSVKGDVYICLTRFIGDSKVMKWGGSSFQDIQRMPSRGSMVFQPLQINNYQYAILGSDYSFTQVYNWDAEKAKFVKFQELNVQAPRSFTHVSINKRNFLFASSFKGNTQIYKHVIVDLSA
binding: no binding
